Experimental data taken from US20030068386A1, “Method of treating cancerous disease” (priority 2001, published 2003).

What was measured:
[1] = Hydrolysis to HO., HPLC-UV analysis of POBN/CH3 hydroxylamine in solutions with DMSO and POBN
[2] = ESR spin trapping of HO. with DMPO in solution of AS; conditions: 0.5 mM AS, phosphate buffer pH 7.4, 20° C.

[Na+].[Na+].[O-][N+]([O-])=NO [AS, sodium trioxodinitrate]
yield of POBN/CH3 hydroxylamine (Scheme III, 9) from the initial AS concentration ([1]; 0.1 phosphate buffer pH 5, DMSO, POBN): approximately 10% | share of AS that hydrolyzes to hydroxyl radical ([1]; from the data in FIG. 4): at least 10% | AS-dependent production of HO. relative to that at pH 7.4 ([1]; pH 5.5 versus pH 7.4, AS 15 mM, 30 minutes at 37° C.): 43 times | AS-dependent production of HO. relative to that at pH 7.4 ([1]; pH interval of about 4-6.5 versus pH 7.4): 50 times | maximal steady state spin concentration as share of the initial concentration of AS [2]: 1% | maximal steady state spin concentration of DMPO/.OH (Scheme III, 5) [2]: 5.4 µM
